The text below walks through data of paper PMC7616277.

Protein sequences, listed by entry. Tags and fused reporters are not part of them.
UniProt P48484: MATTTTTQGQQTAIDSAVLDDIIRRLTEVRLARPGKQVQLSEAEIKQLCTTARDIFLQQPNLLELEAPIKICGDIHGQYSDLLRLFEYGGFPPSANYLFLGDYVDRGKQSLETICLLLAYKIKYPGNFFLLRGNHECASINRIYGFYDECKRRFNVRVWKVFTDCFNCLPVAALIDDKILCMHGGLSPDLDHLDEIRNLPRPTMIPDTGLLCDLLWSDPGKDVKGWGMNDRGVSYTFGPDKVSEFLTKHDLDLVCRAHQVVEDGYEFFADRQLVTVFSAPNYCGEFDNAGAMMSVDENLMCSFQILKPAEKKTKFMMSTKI

No constants are given. Whether binding was seen depends on the method and setting. In cells and extracts the contact can be indirect. Some entries that bind do so weakly or less than the wild type.

The target in this experiment is TOPP4-3xFLAG (Arabidopsis thaliana) (UniProt P48484). Nature of the experiment: co-IP; transient co-expression in N. benthamiana leaves; lysate incubated with anti-FLAG M2 Affinity Gel 2 hours at 4°C (150 mM NaCl, 0.2 % Tween-20); blots with anti-FLAG M2-HRP and anti-GFP; three replicates.

B1: APRF1-mVENUS (protein, UniProt Q9LYK6 1-330)
chain: MSLTELDDGLVRRMAMGAVFSDFGGKIHSVGFHRTDDLLVTSSEDDSLRLFDIANAKQLKITYHKKHGTDRVCFTHHPSSLICSSRYNLESTGESLRYLSMYDNRILRYFKGHKDRVVSLCMSPINDSFMSGSLDRSVRLWDLRVNACQGILHLRGRPAVAYDQQGLVFAIAMEGGAVKLFDSRCYDKGPFDTFLVGGDTAEVNDIKFSNDGKSMLLTTTNNNIYVLDAYRGEKKCGFSLEPSQGTPIEATFTPDGKYVLSGSGDGTLHAWNIENPSEVARWENNIGVVSCLKWAPRRAMFVAASTVLTFWIPNDGESPAPADPPTDQQQ
B1: the binding result is “binds”.
